For at least one compound, name, drawing or mass did not settle the structure.
Assays:
monkeys = details: Machlin et al; cited from earlier work
[1] = Blank reactions without phosphatase: acid-catalyzed release of L-ascorbate in pH 5.0 acetate buffer; format: physicochemical
guinea pigs = test: Guinea pig feeding study of vitamin C activity; format: in vivo
[2] = format: physicochemical; details: hydrogen peroxide, pH 7, 25° C.
Procedure: When ASTP and ASMP were treated under identical conditions (pH 7, 25° C.) with hydrogen peroxide for 8 days, 77% ASTP remained unreacted while 44% ASMP remained. After 14 days oxidation, 0% ASMP remained compared to 55% ASTP.
^1 Reaction mixture contained 0.05 mL of 30% aqueous hydrogen peroxid
and 200 micromoles of Lascorbate or its 2phosphorylated derivative in 100
ml of 0.05 TRIS buffer (pH 7.0). At a given reaction time, an aliquot (1
ml) of a reaction mixture containing the 2phosphorylated ester was dilute
10 fold with TRIS buffer at pH 7, and the uv absorbance of the mixture
read at 258 nm. To follow loss of Lascorbic acid, an aliquot (1 ml) of th
reaction mixture was diluted with 2% metaphosphoric acid, and the uv
absorbance read at 245 nm.

Row | SMILES | vitamin C activity (monkeys) | L-Ascorbate Released (%), Blank ([1]; Table I, reaction time 20.0 h, all reagents except phosphatase, pH 5.0 acetate buffer, 25°) | resistance to acid-catalyzed release of L-ascorbate compared with ASMP ([1]; blank reactions of Table I, pH 5.0 buffer) | health and clinical signs of vitamin C deficiency (guinea pigs; guinea pigs fed the substance as source of vitamin C) | vitamin C activity (guinea pigs; guinea pigs, FIG. 1) | difficulty to oxidize relative to L-ascorbate 2-monophosphate [2]
1 | O=C1O[C@H]([C@@H](O)CO)C(O)=C1OP(=O)(O)O [ASMP, L-Ascorbate 2-phosphate] | active form of vitamin C | – | – | – | – | –
2 | O=C1O[C@H]([C@@H](O)CO)C(O)=C1OP(=O)(O)OP(=O)(O)OP(=O)(O)O [ASTP, L-ascorbate 2-triphosphate] | – | no L-ascorbate | more resistant to acid-catalyzed release of L-ascorbate than is ASMP | no clinical signs of vitamin C deficiency | active form of vitamin C | approximately twice as difficult to oxidize

— patent US4647672A, “Ascorbate 2-polyphosphate esters and method of making same” (priority 1985, dated 1987)
